The campaign covered roughly 350,000 compounds. About 6,000 (1.7%) were called active. This list was built around the results that the source calls inconclusive (neither active nor inactive); the mix of calls is not that of the screen. Rule as the data show it: active = CPE inhibition above about 20% (passing the limit was not always enough); inconclusive = no clear call, values can overlap the other calls; tested in BHK-21 cells.
Test: protection of cells from dengue 2 killing – plate reader, single concentration, primary screen (AID 651640);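 also: 0% = median of neutral control wells and 100% = median of positive control wells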
Conditions: DENV2-infected cells, cytopathic effect rescue, at 9.99 µM, stronger effect = higher value

SMILES	CPE inhibition
C[C@@H]1CN([C@H](C)CO)C(=O)CCCn2nncc2CO[C@@H]1CN(C)C(=O)Nc1ccc(N2CCCCC2)cc1	inconclusive: 27.3%
CCCCCc1c(-c2ccc(Cl)cc2)ncn1CCc1ccccc1OC	active: 21.1%
O=C(C[C@@H]1C[C@@H]2c3cc(NC(=O)Nc4ccccc4F)ccc3O[C@@H]2[C@H](CO)O1)NCC1CC1	active: 67.6%
COc1ccc2c3c(n(C)c2c1)[C@H](CO)NCC31CN(C(=O)c2ccc(F)cc2)C1	active: 69.2%
Cc1cc(C)c(S(=O)(=O)NCCn2c(C)cc3ccccc32)c(C)c1	inactive: -4.79%
CNC(=O)CSc1nnc(-c2ccc3c(c2)OCO3)n1C	inactive: 9.85%
CCCC(=O)Nc1ccc2c(c1)OC[C@@H](C)N(Cc1cccc(F)c1)C[C@@H](C)[C@H](OC)CN(C)C2=O	inconclusive: 24%
C[C@@H]1CN([C@@H](C)CO)C(=O)c2cc(/C=C/c3ccccc3)cnc2O[C@@H]1CN(C)C(=O)c1ccc2c(c1)OCO2	inconclusive: 20.3%
Cn1c(=O)c2c(nc(NCCOc3ccc(F)cc3)n2C)n(C)c1=O	inconclusive: 21.4%
Cc1cccc(CN2CCN(CC(=O)NCc3ccc(F)cc3)C2=O)c1	inconclusive: 39%
Cc1noc(C)c1S(=O)(=O)Nc1ccc2c(c1)CC(=O)N([C@H](C)CO)C[C@@H](C)[C@@H](CN(C)S(=O)(=O)c1cn(C)cn1)O2	inconclusive: 33.1%
C=CC[n+]1c(-c2ccc(Cl)cc2Cl)csc1Nc1ccc(NC(C)=O)cc1	inconclusive: 26.9%
Cn1c(=O)c2c(n(C)c1=O)n(C)c(=O)n2C	inconclusive: 41.4%
CC(=O)N(C)C[C@@H]1Oc2cc(C#Cc3ccccc3)ccc2S(=O)(=O)N([C@H](C)CO)C[C@@H]1C	inactive: 8.5%
Cc1cccc(N2C(=O)C(O)=C(C(=O)c3cccs3)C2c2ccc(F)cc2)n1 (centres undefined)	inconclusive: 23.6%
CCCC#Cc1cnc2c(c1)C(=O)N([C@H](C)CO)C[C@@H](C)[C@H](CN(C)C(=O)Nc1c(C)noc1C)O2	inconclusive: 22%
COc1ccccc1NC(=O)C1CCN(C(=O)NCc2ccccc2)CC1	inconclusive: 31.4%
Cn1sc(=O)c2cc(S(=O)(=O)NC3CC3)ccc21	inconclusive: 30%
COc1ccc(NC(=O)N2CC(=O)N3[C@@H](CO)[C@@H](c4ccc(/C=C/c5ccccc5)cc4)[C@@H]3C2)cc1	inactive: 3.87%
COc1ccc(NC(=O)N(C)C[C@@H]2Oc3ccc(NC(=O)CCCCCC(=O)Nc4ccccc4N)cc3C(=O)N([C@H](C)CO)C[C@@H]2C)cc1	active: 53.2%
CCN(CC(=O)Nc1ccc(NC(C)=O)cc1)C(=O)/C=C/c1cn(-c2ccccc2)nc1-c1ccc(F)cc1	inconclusive: 26.4%
COc1cccc(S(=O)(=O)Nc2ccc3c(c2)[C@H]2C[C@@H](CC(=O)N[C@@H](C)c4ccccc4)O[C@@H](CO)[C@H]2O3)c1	inactive: -4.28%
CCCNC(=O)Nc1ccc2c(c1)C(=O)N(C)[C@H]1CC[C@H](CC(=O)NC3CCC3)O[C@@H]1CO2	inconclusive: 114%
CCOc1cc(N2CCOCC2)c(OCC)cc1NC(=O)C(C)Oc1ccccc1 (centres undefined)	inconclusive: 27.6%
Cc1ccc([C@H]2C[C@H](n3cc(C4CC4)nn3)[C@@H](O)CN2CC2CCCCC2)cc1	inconclusive: 43.1%

SMILES	CPE inhibition
CCN(C(=O)CSc1nncn1-c1ccccc1)C1CCS(=O)(=O)C1 (centres undefined)	active: 85.5%
O=C1c2cccc3c([N+](=O)[O-])ccc(c23)C(=O)N1O	inactive: 0.365%
c1ccc(NC(c2ccccc2)c2ccncc2)cc1 (centres undefined)	inconclusive: 26.5%
Cc1noc(C)c1NC(=O)Nc1cccc2c1O[C@@H](CN(C)S(=O)(=O)c1ccc(F)cc1)[C@@H](C)CN([C@@H](C)CO)C2=O	active: 89.3%
O=C(COC(=O)COc1ccc(Cl)cc1)NC1CCCCCC1	inconclusive: 40.3%
CC(=O)c1ccc(S(=O)(=O)Oc2ccc(C(=O)O)cc2Cl)cc1	inconclusive: 28.9%
COc1cc(C(=O)NNC(=O)Cc2cccs2)cc(OC)c1OC	inconclusive: 22%
COc1ccc(C2=Nn3c(nnc3-c3ccccc3Cl)SC2)cc1OCC1CC1	active: 32.4%
Cc1ccc(-c2ccc3c(c2)O[C@H](CN(C)C(=O)Nc2ccc(C(F)(F)F)cc2)[C@H](C)CN([C@@H](C)CO)S3(=O)=O)cc1	inactive: -2.59%
C[C@H](CO)N1C[C@H](C)[C@@H](CN(C)S(=O)(=O)c2ccc(Cl)cc2)Oc2c(NC(=O)c3nc4ccccc4s3)cccc2C1=O	active: 24.7%
COc1cc(-n2c(C)nc3ncn(-c4ccccc4)c3c2=O)cc(OC)c1OC	inconclusive: 40.8%
CSc1nc2[nH]c(=O)[nH]c2c(=O)[nH]1	inconclusive: 66%
C[C@@H]1CCCCO[C@@H](CN(C)S(=O)(=O)c2cn(C)cn2)[C@H](C)CN([C@@H](C)CO)C(=O)c2cc(NS(=O)(=O)c3ccc(Cl)cc3)ccc2O1	active: 28.2%
CC(C)NC(=O)N(C)C[C@@H]1Oc2ncc(-c3cccc(C#N)c3)cc2C(=O)N([C@H](C)CO)C[C@@H]1C	inconclusive: 28.8%
COc1ccc(OC)c(-c2nnc3n2N=C(c2ccc(OC)c(OC)c2)CS3)c1	active: 31.3%
COc1cccc(-c2ccc([C@H]3[C@H]4CN(C(=O)C5CCC5)CC(=O)N4[C@H]3CO)cc2)c1	inconclusive: 27.2%
Brc1ccc(-c2ccccc2)cc1	active: 62.3%
CCCN1C[C@@H](C)[C@H](OC)CN(C)C(=O)c2ccc(NC(=O)c3cccc(F)c3)cc2OC[C@@H]1C	inactive: 7.71%
COc1ccc(C#Cc2ccc([C@@H]3[C@@H](CO)N4CCCCN(C(=O)c5ccncc5)C[C@H]34)cc2)cc1	active: 28.5%
COc1ccccc1N1CCN(CCCNC(=O)C2CCCN(c3ncnc4c3nc3n4CCCCC3)C2)CC1 (centres undefined)	inconclusive: 22.8%
CCCN1CCN(C(=O)C(C)n2nc(C)c3sc4ccccc4c3c2=O)CC1 (centres undefined)	inconclusive: 27.1%
Cc1ccc(CSCC(=O)Nc2ccccc2F)cc1	inconclusive: 21.7%
CCOC(=O)C1=C(C)N=C2SC(C)C(=O)N2C1c1ccccc1 (centres undefined)	inactive: -9.18%
O=C(COC(=O)c1ccc(Cl)nc1)Nc1ccc(N2CCOCC2)cc1	inconclusive: 25.2%
O=c1[nH]c(SCc2ccccc2)nc2[nH]ncc12	inconclusive: 26.7%

SMILES	CPE inhibition
COc1ccc(-c2ccc3c(c2)[C@@H]2[C@@H](CCN2C(=O)C2CCC2)[C@H](CO)N3C)cc1	inconclusive: 26.6%
CCC(=O)N1CC(=O)N2[C@@H](CO)[C@@H](c3ccc(C#Cc4cccnc4)cc3)[C@@H]2C1	inconclusive: 21.1%
NC(=O)C1(NC(=O)[C@@H]2CC3(CC(c4cccc(NC(=O)[C@@H]5CCC(=O)N5)c4)=NO3)CN2C(=O)c2cnccn2)CC1 (some centres undefined)	inconclusive: 52.7%
COC(=O)c1cc2ccccc2c([N+](=O)[O-])c1O	inactive: 11.1%
COc1ccccc1-c1cnc2c(c1)C(=O)N([C@@H](C)CO)C[C@H](C)[C@H](CN(C)C(=O)CN(C)C)O2	inconclusive: 29.8%
CN(C)C(=O)c1cc(C(=O)c2ccc(Cl)cc2Cl)c[nH]1	inactive: -6.48%
CCCc1cc(=O)oc2c(CN3CCN(C)CC3)c(O)ccc12	inconclusive: 24.1%
CS(=O)(=O)Nc1ccc2c(c1)[C@H]1C[C@H](CC(=O)O)O[C@@H](CO)[C@H]1O2	active: 24.9%
CC(C)(C)c1ccc(OCC(O)CN2CCOCC2)cc1 (centres undefined)	inconclusive: 34%
Cc1noc(C)c1NC(=O)Nc1ccc2c(c1)C(=O)N([C@H](C)CO)C[C@@H](C)[C@@H](CN(C)Cc1ccc3c(c1)OCO3)O2	inactive: -7.63%
COCCNC(=O)c1cc2c(c(-c3cccc(-c4cccc(F)c4)c3)n1)[C@H](CCO)N(S(=O)C(C)(C)C)C2 (some centres undefined)	inconclusive: 42.3%
NCCCC[C@H]1CNC(=O)C(=O)N1CCC12CC3CC(CC(C3)C1)C2	inconclusive: 68.1%
C[C@H](CO)N1C[C@H](C)[C@@H](CN(C)Cc2ccccc2C(=O)O)Oc2cc(-c3ccc(C(=O)N(C)C)cc3)ccc2S1(=O)=O	inactive: -2.38%
Cc1noc(C)c1NC(=O)N(C)C[C@H]1Oc2ccc(NC(=O)Nc3cccc4ccccc34)cc2CC(=O)N([C@@H](C)CO)C[C@@H]1C	inactive: 10.5%
O=C(CCN1CCN(CCO)CC1)Nc1cccc(Br)c1	inconclusive: 22.8%
COc1cc(/C(C)=N\NC(N)=S)cc(OC)c1OC	inconclusive: 89.9%
O=C(CN1C(=O)NC(c2ccccc2)(c2ccccc2)C1=O)NCc1cccs1	inconclusive: 47%
O=C(N[C@@H]1CC[C@@H](CCn2cc(C3CC3)nn2)O[C@@H]1CO)c1cccnc1	inconclusive: 40.5%
Cn1cccc1C(=O)OCC(=O)NC(=O)c1ccc(Cl)cc1	active: 25.9%
O=C(C1CCC1)N1CC[C@H]2[C@H](CO)Nc3ccc(Br)cc3[C@H]21	inactive: 9.03%
COc1ccc(C(=O)N/N=C/c2c(CO)cnc(C)c2O)cc1	inconclusive: 35.4%
O=C(Nc1cccc(Cl)c1)OC1CCCCc2cccnc21 (centres undefined)	inactive: -2.38%
C[C@H](NC(=O)C[C@H]1CC[C@H](NC(=O)CN2CCOCC2)[C@H](CO)O1)c1ccccc1	inconclusive: 20.9%
CC(=O)N1[C@@H]2c3ccc(C4=CCCCC4)c(=O)n3C[C@H]1[C@H](CO)[C@H]2C(=O)NC1CCC1	inactive: -4.18%

Taken from above.
Under CPE inhibition, C[C@H](CO)N1C[C@H](C)[C@@H](CN(C)Cc2ccccc2C(=O)O)Oc2cc(-c3ccc(C(=O)N(C)C)cc3)ccc2S1(=O)=O has inactive: -2.38%
Under CPE inhibition, O=C(Nc1cccc(Cl)c1)OC1CCCCc2cccnc21 (centres undefined) has inactive: -2.38%
Under CPE inhibition, COc1cc(/C(C)=N\NC(N)=S)cc(OC)c1OC has inconclusive: 89.9%

Reference: PubChem BioAssay AID651640 (Broad Institute, 2012)
